# Assay results reported in publication PMC9132451.
# Sequences of proteins named here, by UniProt entry; tags and fusion partners are left off. Residues count along the entry.
# UniProt P23818, residues 19-907: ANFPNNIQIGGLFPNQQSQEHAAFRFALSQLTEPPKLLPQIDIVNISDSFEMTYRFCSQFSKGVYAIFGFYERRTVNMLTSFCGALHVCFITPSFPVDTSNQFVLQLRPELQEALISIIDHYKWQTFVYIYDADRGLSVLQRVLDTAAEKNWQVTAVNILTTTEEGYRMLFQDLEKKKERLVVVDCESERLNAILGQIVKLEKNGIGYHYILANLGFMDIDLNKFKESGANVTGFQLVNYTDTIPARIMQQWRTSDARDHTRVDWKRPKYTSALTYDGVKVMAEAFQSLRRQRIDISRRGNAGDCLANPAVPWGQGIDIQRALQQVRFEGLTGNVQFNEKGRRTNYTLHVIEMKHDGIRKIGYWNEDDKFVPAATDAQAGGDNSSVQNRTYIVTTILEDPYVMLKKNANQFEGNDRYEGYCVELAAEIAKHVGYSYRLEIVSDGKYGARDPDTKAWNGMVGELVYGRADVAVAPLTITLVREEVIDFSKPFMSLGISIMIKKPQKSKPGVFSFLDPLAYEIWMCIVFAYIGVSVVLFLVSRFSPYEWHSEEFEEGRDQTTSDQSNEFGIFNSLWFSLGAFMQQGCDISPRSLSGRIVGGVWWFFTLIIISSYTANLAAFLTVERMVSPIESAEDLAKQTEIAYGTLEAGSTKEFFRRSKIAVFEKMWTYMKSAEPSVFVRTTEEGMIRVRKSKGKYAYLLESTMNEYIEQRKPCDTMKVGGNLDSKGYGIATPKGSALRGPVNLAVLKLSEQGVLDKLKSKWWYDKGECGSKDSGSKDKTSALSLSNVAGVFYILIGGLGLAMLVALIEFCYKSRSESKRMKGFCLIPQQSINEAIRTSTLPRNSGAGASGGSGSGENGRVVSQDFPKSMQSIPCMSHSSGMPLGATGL
# No constants are given. Whether binding was seen depends on the method and setting. In cells and extracts the contact can be indirect. Some binding calls cover weakened binding; strength is not graded here.
# B1: clathrin assembly lymphoid myeloid leukemia protein (CALM), endogenous (protein, UniProt Q7M6Y3 1-660)
# chain: MSGQSLTDRITAAQHSVTGSAVSKTVCKATTHEIMGPKKKHLDYLIQCTNEMNVNIPQLADSLFERTTNSSWVVVFKSLITTHHLMVYGNERFIQYLASRNTLFNLSNFLDKSGLQGYDMSTFIRRYSRYLNEKAVSYRQVAFDFTKVKRGADGVMRTMNTEKLLKTVPIIQNQMDALLDFNVNSNELTNGVINAAFMLLFKDAIRLFAAYNEGIINLLEKYFDMKKNQCKEGLDIYKKFLTRMTRISEFLKVAEQVGIDRGDIPDLSQAPSSLLDALEQHLASLEGKKIKDSTAASRATTLSNAVSSLASTGLSLTKVDEREKQAALEEEQARLKALKEQRLKELAKKPHTSLTTAASPVSTSAGGIMTAPAIDIFSTPSSSNSTSKLPNDLLDLQQPTFHPSVHAMSAAPQGASTWGDPFSATLDAVEDAIPSLNPFLTKSSGDVHLPIASDVSTFTTRTPTHEMFVGFSPSPVAQPHSSAGLNVDFESVFGNKSTNVAVDSGGFDELGGLLKPTVASQNQSLPVAKLPPNKLVSDDLDSSLANLVGNLGIGNGTTKNDVSWSQPGEKKLTGGSNWQPKVAPTTAWSAATMNGMHFPQYAPPVMAYPATTPTGMIGYGIPPQMGSVPVMTQPTLIYSQPVMRPPNPFGPVSGAQIQFM
# Target: GluA1 (AMPA-type glutamate receptor subunit), endogenous (mouse (endogenous in mouse brain)) (UniProt P23818)
# Assay: co-IP; endogenous proteins; 4 mg P3 (synaptosomal membrane fraction) lysate of mouse brain in 50 mM tris-HCl, 150 mM NaCl, 1% n-dodecyl β-D-maltoside; 3 μg antibody or IgG control, Protein A/G magnetic beads, 4°C; immunoblotting
binder,measurement,value
B1,binding,binds
